Data: patent publication US20050112168A1
These are yes or no findings as the source states them, for the method shown. Some binding calls cover weakened binding; strength is not graded here.

Sequences of proteins named here, by UniProt entry; tags and fusion partners are left off. Residues count along the entry.
UniProt P09889, residues 22-340: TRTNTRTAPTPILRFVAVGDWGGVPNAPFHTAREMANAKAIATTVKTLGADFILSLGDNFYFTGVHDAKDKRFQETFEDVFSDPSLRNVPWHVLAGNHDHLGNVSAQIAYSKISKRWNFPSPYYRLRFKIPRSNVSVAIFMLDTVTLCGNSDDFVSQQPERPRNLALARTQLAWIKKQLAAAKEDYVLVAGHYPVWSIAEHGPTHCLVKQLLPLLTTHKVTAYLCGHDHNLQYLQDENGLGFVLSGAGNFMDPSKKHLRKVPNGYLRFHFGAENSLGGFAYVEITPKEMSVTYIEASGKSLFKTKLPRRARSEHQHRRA
UniProt P29288, residues 23-327: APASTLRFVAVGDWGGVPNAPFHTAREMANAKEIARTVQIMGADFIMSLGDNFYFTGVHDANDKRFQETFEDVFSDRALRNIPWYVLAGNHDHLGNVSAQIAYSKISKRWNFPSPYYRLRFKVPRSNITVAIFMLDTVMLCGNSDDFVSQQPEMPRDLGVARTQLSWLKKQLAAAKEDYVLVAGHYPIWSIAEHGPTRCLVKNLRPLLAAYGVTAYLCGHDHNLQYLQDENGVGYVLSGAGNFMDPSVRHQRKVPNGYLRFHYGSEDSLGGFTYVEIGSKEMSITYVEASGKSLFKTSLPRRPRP

What was measured:
[1] = biological target: purified type V tartrate resistant acid phosphatase (TRAP), also known as uteroferrin (UniProt P09889); assay: Scatchard-type analysis on immobilised TRAP (FIG. 6)
[2] = biological target: purified type V tartrate resistant acid phosphatase (TRAP), also known as uteroferrin (UniProt P09889); assay: Far-Western, TRAP on membrane probed with intact phage
[3] = biological target: purified type V tartrate resistant acid phosphatase (TRAP), also known as uteroferrin (UniProt P09889); assay: Far-Western, increasing amounts of TRAP probed with Clone 5 phage
[4] = biological target: TRAP in osteoclast resorption lacunae on cortical bone wafers (rat (osteoclasts from rat pups)) (UniProt P29288); assay: Far-Western of proteins extracted from pitted bone wafers by boiling
[5] = biological target: purified type V tartrate resistant acid phosphatase (TRAP), also known as uteroferrin (UniProt P09889); assay: Far-Western detection of TRAP with M13 Clone 5 phage (named in paragraph 417)
[6] = biological target: TRAP in osteoclast resorption lacunae on cortical bone wafers (rat (osteoclasts from rat pups)) (UniProt P29288); assay: in situ staining of pitted bone wafers with phage and HRP anti-phage antibody

Measured: binding

B1: Clone 5 phage (M13 phage displaying the 12-mer …) (peptide, not shown: large carriers)
peptide: TPLSYLKGLVTV
binds: all assays above
